Test results taken from publication PMC12645360.
These are yes or no findings as the source states them, for the method shown. In cells and extracts the contact can be indirect. Some binding calls cover weakened binding; strength is not graded here.

The chains behind the UniProt entries cited, without tags or fusion partners. Where a name states a change or a piece, a line headed by the entry shows the natural chain unless it says otherwise. A line that says so, or that is headed by a name, gives the form on record, which may keep a tag or linker. Residues count along the entry.
UniProt Q96RU7: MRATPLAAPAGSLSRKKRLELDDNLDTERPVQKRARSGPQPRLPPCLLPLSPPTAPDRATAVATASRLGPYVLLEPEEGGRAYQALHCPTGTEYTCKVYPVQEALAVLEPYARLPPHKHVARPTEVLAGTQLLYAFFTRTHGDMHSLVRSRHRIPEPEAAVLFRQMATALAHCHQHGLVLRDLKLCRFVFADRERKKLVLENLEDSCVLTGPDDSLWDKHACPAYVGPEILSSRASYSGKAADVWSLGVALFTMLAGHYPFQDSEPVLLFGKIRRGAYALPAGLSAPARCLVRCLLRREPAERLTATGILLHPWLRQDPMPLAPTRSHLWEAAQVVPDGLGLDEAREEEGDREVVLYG
HA-tagged TRIB3 fragment, amino acids 1-180: residues 1-180 of Q96RU7
HA-tagged TRIB3 fragment, amino acids 72-315: residues 72-315 of Q96RU7
HA-tagged TRIB3 fragment, amino acids 181-358: residues 181-358 of Q96RU7
UniProt Q99607: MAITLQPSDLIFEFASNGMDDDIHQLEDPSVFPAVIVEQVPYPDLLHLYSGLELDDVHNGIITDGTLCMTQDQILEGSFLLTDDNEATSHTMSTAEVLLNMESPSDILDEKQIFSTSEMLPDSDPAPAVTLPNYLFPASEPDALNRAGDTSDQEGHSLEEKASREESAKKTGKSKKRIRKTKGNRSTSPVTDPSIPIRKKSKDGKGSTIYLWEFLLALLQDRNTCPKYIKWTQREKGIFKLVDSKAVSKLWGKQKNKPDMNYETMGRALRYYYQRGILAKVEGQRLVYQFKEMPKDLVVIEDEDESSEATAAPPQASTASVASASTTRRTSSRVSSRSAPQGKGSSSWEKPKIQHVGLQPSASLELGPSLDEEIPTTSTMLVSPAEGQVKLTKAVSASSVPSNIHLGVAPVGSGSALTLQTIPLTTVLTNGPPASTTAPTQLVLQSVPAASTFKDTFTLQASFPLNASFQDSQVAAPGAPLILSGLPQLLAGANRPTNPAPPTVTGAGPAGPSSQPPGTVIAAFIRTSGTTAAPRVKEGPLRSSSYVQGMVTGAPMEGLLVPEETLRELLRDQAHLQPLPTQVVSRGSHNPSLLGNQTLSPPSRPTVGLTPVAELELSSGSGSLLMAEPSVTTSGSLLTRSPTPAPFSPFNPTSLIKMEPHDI

Assays:
Assay in all cases: co-IP; 293T cells co-transfected with a TRIB3-HA construct and ELF4-Myc-DDK, 48 h; RIPA lysate (500 ug protein); anti-HA antibody or isotype-matched IgG overnight at 4°C, Protein G Mag Sepharose beads; western blot with anti-Flag or anti-HA
[1] = biological target: HA-tagged full-length TRIB3 (tribbles pseudokinase 3, amino acids 1-358) (UniProt Q96RU7)
[2] = biological target: HA-tagged TRIB3 fragment, amino acids 72-315 (UniProt Q96RU7)
[3] = biological target: HA-tagged TRIB3 fragment, amino acids 1-180 (UniProt Q96RU7)
[4] = biological target: HA-tagged TRIB3 fragment, amino acids 181-358 (UniProt Q96RU7)

binding [1]: binds
binding [2]: no binding
binding [3]: binds
binding [4]: binds
Substance: full-length Myc-DDK-tagged ELF4 (E74-like ETS transcription factor 4) (from UniProt Q99607 1-663)
